Laboratory results: PubChem BioAssay AID652259 (Drosophila RNAi Screening Center, 2013)

- Assay: 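Knock-downs that push a Wingless-driven reporter up or down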 (primary screen)
- Cells: Drosophila clone 8 imaginal disc epithelial cells
- Reagent: long dsRNA against Drosophila genes
- Conditions: pathway stimulated by co-transfected Wingless expression plasmid
- Measured: 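Dual luciferase reads per well after Wingless plasmid stimulation: reporter firefly light and Renilla control light; activity is firefly divided by Renilla, a ratio not deposited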
- Direction: firefly reporter light: higher = more Wg reporter light, before normalisation; Renilla control light: higher = more transfected or surviving cells
- Hit rule: 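a knock-down is a candidate when at least two out of four statistical tests show it departing from its plate mean; one test alone signals a weak candidate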
- Calls: active = candidate regulator (raises or lowers reporter); inactive = not a candidate
In all, the deposit lists about 22,000 reagents; shown is an unselected part of those with a known target gene and a result. Over the whole deposit, 233 (1.1%) got an active call. 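Light values are raw, unnormalised plate reads; the ratio scores behind the reporter calls were not deposited.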 Not given: the amount of reagent, the time to read-out, the dose of the treatment.

tei (GeneID 36521) [DRSC07616]: firefly reporter light, replicate 1 = 5173; Renilla control light, replicate 1 = 1730; outcome = inactive
Clic (GeneID 32349) [DRSC19364]: firefly reporter light, replicate 1 = 3449; firefly reporter light, replicate 2 = 7088; Renilla control light, replicate 1 = 770; Renilla control light, replicate 2 = 3236; outcome = inactive
Six4 (GeneID 40297) [DRSC11881]: firefly reporter light, replicate 1 = 12996; Renilla control light, replicate 1 = 4067; outcome = inactive
CG42241 (retired record) (GeneID 7354372) [DRSC04007]: firefly reporter light, replicate 1 = 16612; Renilla control light, replicate 1 = 8064; outcome = inactive
RpL35A (GeneID 40654) [DRSC12302]: firefly reporter light, replicate 1 = 13561; Renilla control light, replicate 1 = 2304; outcome = inactive
RpS4 (GeneID 39484) [DRSC11272]: firefly reporter light, replicate 1 = 4059; Renilla control light, replicate 1 = 1840; outcome = inactive
CG33172 (GeneID 32526) [DRSC21793]: firefly reporter light, replicate 1 = 4.26e5; firefly reporter light, replicate 2 = 4.12e5; Renilla control light, replicate 1 = 1.79e5; Renilla control light, replicate 2 = 1.44e5; outcome = inactive
Dark (GeneID 36914) [DRSC05922]: firefly reporter light, replicate 1 = 15108; Renilla control light, replicate 1 = 4643; outcome = inactive
CG30380 (GeneID 246579) [DRSC05069]: firefly reporter light, replicate 1 = 18348; Renilla control light, replicate 1 = 8389; outcome = inactive
CG13531 (GeneID 37627) [DRSC04173]: firefly reporter light, replicate 1 = 2745; firefly reporter light, replicate 2 = 7162; Renilla control light, replicate 1 = 728; Renilla control light, replicate 2 = 2380; outcome = inactive
HP5 (GeneID 32090) [DRSC19773]: firefly reporter light, replicate 1 = 1480; firefly reporter light, replicate 2 = 7104; Renilla control light, replicate 1 = 739; Renilla control light, replicate 2 = 2301; outcome = inactive
CG9500 (GeneID 33888) [DRSC03237]: firefly reporter light, replicate 1 = 2084; firefly reporter light, replicate 2 = 4948; Renilla control light, replicate 1 = 248; Renilla control light, replicate 2 = 2201; outcome = inactive
CG12171 (GeneID 40690) [DRSC12200]: firefly reporter light, replicate 1 = 8342; Renilla control light, replicate 1 = 1997; outcome = inactive
yellow-e (GeneID 41653) [DRSC12966]: firefly reporter light, replicate 1 = 5032; Renilla control light, replicate 1 = 1985; outcome = inactive
yellow-e (GeneID 41653) [DRSC16563]: firefly reporter light, replicate 1 = 13779; Renilla control light, replicate 1 = 2464; outcome = inactive
Dad1 (GeneID 34159) [DRSC02263]: firefly reporter light, replicate 1 = 2121; firefly reporter light, replicate 2 = 7283; Renilla control light, replicate 1 = 916; Renilla control light, replicate 2 = 3197; outcome = inactive
CG6984 (GeneID 36926) [DRSC07013]: firefly reporter light, replicate 1 = 13489; Renilla control light, replicate 1 = 4272; outcome = inactive
mib1 (GeneID 39750) [DRSC10550]: firefly reporter light, replicate 1 = 10836; Renilla control light, replicate 1 = 3659; outcome = inactive
Sirt4 (GeneID 31480) [DRSC18290]: firefly reporter light, replicate 1 = 18611; Renilla control light, replicate 1 = 7435; outcome = inactive
CG2736 (GeneID 37998) [DRSC04314]: firefly reporter light, replicate 1 = 10617; Renilla control light, replicate 1 = 4098; outcome = inactive
CG17028 (GeneID 39741) [DRSC10239]: firefly reporter light, replicate 1 = 5493; Renilla control light, replicate 1 = 2441; outcome = inactive
Pex10 (GeneID 38182) [DRSC08599]: firefly reporter light, replicate 1 = 24803; Renilla control light, replicate 1 = 7035; outcome = inactive
Pex10 (GeneID 38182) [DRSC22021]: firefly reporter light, replicate 1 = 3.99e5; firefly reporter light, replicate 2 = 4.68e5; Renilla control light, replicate 1 = 1.46e5; Renilla control light, replicate 2 = 2.09e5; outcome = inactive
Cad96Cb (GeneID 43033) [DRSC14243]: firefly reporter light, replicate 1 = 13701; Renilla control light, replicate 1 = 10482; outcome = inactive
Cad96Cb (GeneID 43033) [DRSC14665]: firefly reporter light, replicate 1 = 21808; Renilla control light, replicate 1 = 13564; outcome = inactive
CG6749 (GeneID 39144) [DRSC10704]: firefly reporter light, replicate 1 = 7239; Renilla control light, replicate 1 = 2635; outcome = inactive
tll (GeneID 43656) [DRSC17085]: firefly reporter light, replicate 1 = 6896; Renilla control light, replicate 1 = 2108; outcome = inactive
CG15657 (GeneID 37408) [DRSC04248]: firefly reporter light, replicate 1 = 2261; firefly reporter light, replicate 2 = 3460; Renilla control light, replicate 1 = 873; Renilla control light, replicate 2 = 1818; outcome = inactive
CG8034 (GeneID 32924) [DRSC20076]: firefly reporter light, replicate 1 = 2944; firefly reporter light, replicate 2 = 5821; Renilla control light, replicate 1 = 661; Renilla control light, replicate 2 = 1714; outcome = inactive
Gr98b (GeneID 117327) [DRSC21675]: firefly reporter light, replicate 1 = 4.60e5; firefly reporter light, replicate 2 = 4.69e5; Renilla control light, replicate 1 = 2.36e5; Renilla control light, replicate 2 = 2.08e5; outcome = inactive
CG9706 (GeneID 39876) [DRSC11095]: firefly reporter light, replicate 1 = 4809; Renilla control light, replicate 1 = 2198; outcome = inactive
CG34002 (GeneID 3885644) [DRSC09512]: firefly reporter light, replicate 1 = 4448; Renilla control light, replicate 1 = 1475; outcome = inactive

Reprinted from the entries so far, 3 entries:
yellow-e (GeneID 41653) [DRSC12966]: firefly reporter light, replicate 1 = 5032; Renilla control light, replicate 1 = 1985; outcome = inactive
yellow-e (GeneID 41653) [DRSC16563]: firefly reporter light, replicate 1 = 13779; Renilla control light, replicate 1 = 2464; outcome = inactive
Dad1 (GeneID 34159) [DRSC02263]: firefly reporter light, replicate 1 = 2121; firefly reporter light, replicate 2 = 7283; Renilla control light, replicate 1 = 916; Renilla control light, replicate 2 = 3197; outcome = inactive
